According to paper PMC12040169 (PLOS Biology, 2025):
The list shows a part of the results.

System: T1, CTL2-GFP (C. trachomatis L2/434/Bu, GFP-expressing)
T1 construct: L2/434/Bu, GFP-expressing
Parameters: species or system HeLa; Intracellular C. trachomatis growth in HeLa cells, bulk GFP fluorescence relative to DMSO
Conditions: bulk GFP, single well; 28.5 h, 10 µM; inhibitor

Structure (SMILES)	% of control remaining
COc1ccc(CN[C@@H]2CCC[C@H]2Cc2cc(C)no2)cc1 [CBK285401]	117.095%
CC1CCCN(C(=O)c2ccc(-n3ccnc3)c(-n3cccc3)c2)C1 (stereo not shown) [CBK285370]	109.304%
Cc1cc(C[C@@H]2COC[C@H]2NCc2ccc(Cl)cc2)on1 [CBK285402]	125.26%
Cn1c(=O)c2[nH]c(CN3CCN(Cc4ccccc4)CC3)nc2n(C)c1=O [CBK269519]	137.539%
CN(C)c1nc(Cl)nc(N(C)C#N)n1 [CBK025922]	119.405%
CC(Nc1cc(N2CCN(CCO)CC2)ccc1[N+](=O)[O-])c1ccc(Br)cc1 (stereo not shown) [CBK041273]	49.0637%
COc1cc([N+](=O)[O-])ccc1NC(=S)NCc1ccc(S(N)(=O)=O)cc1 [CBK267067]	170.141%
Cc1cc(C(=O)N(Cc2ccccc2)c2ccccc2)no1 [CBK268131]	90.8261%
Cc1ccccc1-c1noc(C(C)NC(=O)C2(Cn3ccnc3)CC2)n1 (stereo not shown) [CBK306684]	143.637%
CC(C)(C)c1cc(C(=O)NCc2ccccn2)n(Cc2ccc(Cl)cc2Cl)n1 [CBK107288]	113.482%
Cc1cc(Cc2cnc(NC(=O)c3ccncc3)s2)ccc1Br [CBK298304]	101.732%
CCN1CCN(S(=O)(=O)c2ccc(Br)cc2)CC1 [CBK100197]	100%
COc1ccc(-c2nnc(SCC(=O)O)n2C)cc1 [CBK287232]	146.612%
O=C(O)CCCC(=O)Nc1cc(C(=O)O)ccc1Cl [CBK267907]	90.5035%
Cc1cc(C)c(COc2nccnc2OC2CCN(CCCC#N)CC2)c(C)c1 [CBK161575]	103.247%
Cc1cc2c(cc1NC(=O)[C@@H]1C[C@@H]3C=C[C@H]1C3)n(C)c(=O)n2C [CBK281689]	102.488%
CS(=O)(=O)N1C2CCC(C2)[C@H]1COc1ccc(F)cc1 (stereo partly shown) [CBK285279]	146.291%
O=C(NCc1ccc2c(c1)OCO2)c1ccccc1CCc1ccccc1 [CBK268591]	79.4802%
Cc1nnc(-c2cc(CC(C)C)n(-c3cccc(C(=O)N4CC=CCC4)c3)n2)o1 [CBK114630]	101.881%
COc1ccccc1-c1nnc(NC(=O)COc2ccccc2)o1 [CBK287590]	137.693%
CC1CN(c2nccn(CCOc3ccc(Br)cc3)c2=O)CCN1 (stereo not shown) [CBK028596T]	143.581%
CCC(CN(C(=O)C(N)CCCCN)c1ccc2c(c1)OCO2)c1ccccc1 (stereo not shown) [CBK001083T]	110.4%

In another format: entries from further up

| Structure (SMILES) | % of control remaining |
| --- | --- |
| CC1CN(c2nccn(CCOc3ccc(Br)cc3)c2=O)CCN1 (stereo not shown) [CBK028596T] | 143.581% |
| CCC(CN(C(=O)C(N)CCCCN)c1ccc2c(c1)OCO2)c1ccccc1 (stereo not shown) [CBK001083T] | 110.4% |
